Measurements reported in PubChem BioAssay AID1259405 (NCATS, 2018)

- Assay: 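Mouse-designed siRNAs used to find CHO productivity engineering targets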 (primary screen)
- Cells: Chinese hamster CHO-K1 ovary cells with stable secreted eGFP expression
- Reagents: single siRNA against mouse genes, 0.8 pmol siRNA per well (2 µl of 400 nM stock)
- Duration: 3 days
- Detection: 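Percent of the per-plate non-targeting control median for intracellular GFP per well by laser scanning cytometry and for cell viability by ATP luminescence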
- Direction: GFP, % of control: higher = more GFP per well, higher productivity; viability (ATP), % of control: higher = more viable cells (more ATP)
- Rule for the call: 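a knock-down is called active if GFP reaches 120% or more of non-targeting control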
This is an unselected part of about 50,000 reagents. About 4,000 of all reagents (8%) were called active. 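Mouse siRNA library applied to hamster cells; one well for each siRNA.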 The numbers tell different reagents against one gene apart. Reagent sequences are not shown.

Against Gm1553 (predicted gene 1553) #1, the values are GFP, % of control 45.2; viability (ATP), % of control 68.7; inactive.
Against Gm1553 (predicted gene 1553) #2, the values are GFP, % of control 72.6; viability (ATP), % of control 108; inactive.
Knock-down of Gm1553 (predicted gene 1553) #3 came out at: GFP, % of control 55.7; viability (ATP), % of control 86.4; inactive.
Or12d12 (olfactory receptor family 12 subfamily D member 12) #1 scored GFP, % of control 97.5; viability (ATP), % of control 73.5; inactive.
Silencing of Or12d12 (olfactory receptor family 12 subfamily D member 12) #2 resulted in: GFP, % of control 64.9; viability (ATP), % of control 80.1; inactive.
With knock-down of Or12d12 (olfactory receptor family 12 subfamily D member 12) #3 the results were GFP, % of control 127; viability (ATP), % of control 65.5; active.
Nlrc3 (NLR family, CARD domain containing 3) #1 scored GFP, % of control 41.2; viability (ATP), % of control 35.2; inactive.
For Nlrc3 (NLR family, CARD domain containing 3) #2 the deposit lists GFP, % of control 74.8; viability (ATP), % of control 70.7; inactive.
After knock-down of Ggact (gamma-glutamylamine cyclotransferase) #1, the screen gave GFP, % of control 48.4; viability (ATP), % of control 76; inactive.
Ggact (gamma-glutamylamine cyclotransferase) #2 scored GFP, % of control 54.3; viability (ATP), % of control 53.8; inactive.
With knock-down of Ggact (gamma-glutamylamine cyclotransferase) #3, the record shows GFP, % of control 122; viability (ATP), % of control 115; active.
With knock-down of Wnt8b (WNT family member 8B) #1, the record shows GFP, % of control 123; viability (ATP), % of control 74.3; active.
Against Wnt8b (WNT family member 8B) #2, the entry reads GFP, % of control 57.3; viability (ATP), % of control 52.1; inactive.
Depletion of Wnt8b (WNT family member 8B) #3 resulted in: GFP, % of control 70.2; viability (ATP), % of control 54.2; inactive.
With knock-down of Acot5 (acyl-CoA thioesterase 5) #1, the screen gave GFP, % of control 57.8; viability (ATP), % of control 52.1; inactive.
For Acot5 (acyl-CoA thioesterase 5) #2, the values are GFP, % of control 95.2; viability (ATP), % of control 96.8; inactive.
For Acot5 (acyl-CoA thioesterase 5) #3, the values are GFP, % of control 113; viability (ATP), % of control 135; inactive.
With knock-down of Clpx #1, the screen gave GFP, % of control 91.3; viability (ATP), % of control 83.9; inactive.
Clpx #2 scored GFP, % of control 106; viability (ATP), % of control 103; inactive.
Against Clpx #3 the deposit lists GFP, % of control 94.1; viability (ATP), % of control 103; inactive.
Knock-down of Gdi1 (GDP dissociation inhibitor 1) #1 resulted in: GFP, % of control 131; viability (ATP), % of control 99.6; active.
Knock-down of Gdi1 (GDP dissociation inhibitor 1) #2 came out at: GFP, % of control 125; viability (ATP), % of control 53.7; active.
After knock-down of Gdi1 (GDP dissociation inhibitor 1) #3 the results were GFP, % of control 71.2; viability (ATP), % of control 106; inactive.
Fgf1 (fibroblast growth factor 1) #1 scored GFP, % of control 80.6; viability (ATP), % of control 77.3; inactive.
Fgf1 (fibroblast growth factor 1) #2 showed GFP, % of control 88; viability (ATP), % of control 75.7; inactive.
Silencing of Fgf1 (fibroblast growth factor 1) #3 came out at: GFP, % of control 91.1; viability (ATP), % of control 112; inactive.
For Rdh9 (retinol dehydrogenase 9) #1, the entry reads GFP, % of control 67.6; viability (ATP), % of control 47.5; inactive.
After knock-down of Rdh9 (retinol dehydrogenase 9) #2, the screen gave GFP, % of control 64.9; viability (ATP), % of control 89.8; inactive.
Rdh9 (retinol dehydrogenase 9) #3 gave GFP, % of control 28; viability (ATP), % of control 41.3; inactive.
Against Brinp2 #1, the entry reads GFP, % of control 67.8; viability (ATP), % of control 43.4; inactive.
Silencing of Brinp2 #2 resulted in: GFP, % of control 78.8; viability (ATP), % of control 86.9; inactive.
Brinp2 #3 gave GFP, % of control 89.1; viability (ATP), % of control 89.4; inactive.
Id3 (inhibitor of DNA binding 3) #1 scored GFP, % of control 67; viability (ATP), % of control 36.3; inactive.
With knock-down of Id3 (inhibitor of DNA binding 3) #2, the screen gave GFP, % of control 79.5; viability (ATP), % of control 72; inactive.
With knock-down of Id3 (inhibitor of DNA binding 3) #3 the results were GFP, % of control 115; viability (ATP), % of control 102; inactive.
Knock-down of Ankra2 (ankyrin repeat family A member 2) #1 resulted in: GFP, % of control 88; viability (ATP), % of control 82.5; inactive.
Depletion of Ankra2 (ankyrin repeat family A member 2) #2 gave: GFP, % of control 37.4; viability (ATP), % of control 53; inactive.
After knock-down of Ankra2 (ankyrin repeat family A member 2) #3, the screen gave GFP, % of control 82; viability (ATP), % of control 97.6; inactive.
After knock-down of Fpr-rs4 (formyl peptide receptor, related sequence 4) #1, the screen gave GFP, % of control 99.4; viability (ATP), % of control 90.5; inactive.
Fpr-rs4 (formyl peptide receptor, related sequence 4) #2 showed GFP, % of control 45.9; viability (ATP), % of control 41.9; inactive.
Silencing of Fpr-rs4 (formyl peptide receptor, related sequence 4) #3 came out at: GFP, % of control 77.1; viability (ATP), % of control 89.9; inactive.

Active calls, of those listed so far:
Or12d12 (olfactory receptor family 12 subfamily D member 12) #3 — GFP, % of control: 127; viability (ATP), % of control: 65.5; Call: active
Ggact (gamma-glutamylamine cyclotransferase) #3 — GFP, % of control: 122; viability (ATP), % of control: 115; Call: active
Wnt8b (WNT family member 8B) #1 — GFP, % of control: 123; viability (ATP), % of control: 74.3; Call: active
Gdi1 (GDP dissociation inhibitor 1) #1 — GFP, % of control: 131; viability (ATP), % of control: 99.6; Call: active
Gdi1 (GDP dissociation inhibitor 1) #2 — GFP, % of control: 125; viability (ATP), % of control: 53.7; Call: active
